Reference: paper PMC10163288
Some of the results follow.

B1: il2ra_site1_3nfp_normal_mot_HHH_b1_00630_af2_000000193_0001_42_55_H_._ae2d1c0b5552e85e62693402b9c72bf7_0001_0001_0000300036_0000001_0 (protein)
chain: DRVAKRLIEEAIRQNDELTLKRILRALENILGNPEEAERVLEELIRELLGDPEEAKEIVQEIAER
B2: il2ra_site1_3nfp_sap_16_mot_HHH_b2_08182_af2_000000158_0001_1_17_H_._HHH_b1_06062_0001_0000500034_0000001_0_0001_af2pred_0001_af2pred (protein)
chain: DEEELVERDLEKLARLAGVPQVSVENRNGTFHIEINGDNKKARHLQRFAERALRSLGKPVEVTVE
B3: il2ra_site2_2erj_normal_mot_HHH_b1_05630_000000190_0001_1_20_H_._HHH_b2_02707_0001_0000500014_0000001_0 (protein)
chain: SSSSDAEELVRRLLEEAEEAAERNDPARVYQLLAEAYRIAFENNDREALRFVSEVSVEIFSSSSS
B4: il2ra_site1_3nfp_normal_mot_HHH_b2_05101_000000267_0001_1_16_H_._ems_3hM_201_0001_0001300038_0000001_1 (protein)
chain: DREQREASDALIEAAAKLQLRNVDPEEVERVIQEVAEELQEEIQDPENQKAVQFLAEFLIKRVCS
B5: il2ra_site2_2erj_sap_26_mot_6d5f7cbc25fed124e3eb7f952334b9cf_0001_af2_000000048_0001_1_13_H_._HHH_b1_03116_af2_0001_0000300013_0000001_0_0001_af2pred_0001_1_af2 … (protein)
chain: SSSSSEAEEEIEELLERIKRLLEEGNPEEALVLILRVAELALELEDEELLEAVTRLLRRTQSSSS
B6: il2ra_site1_3nfp_sap_15_mot_HHH_b2_06193_000000064_0001_1_20_H_._HHH_b1_06659_af2_0002_0000500014_0000001_0_0001 (protein)
chain: SSSSNEQAHEMIRAAAKAQLAAWERGDPETAKEVYELAARYAREGDERLREELERLLEEILSSSS
B7: il2ra_site2_3nfp_sap_16_mot_HHH_b2_06150_000000217_0001_39_53_H_._HHH_b1_00010_0001_0000400034_0000001_0_0001 (protein)
chain: SSSSDQERMLRLALEALEAAARLGDEEMFEKSLEYIKAAALLANDEEVKEEVERLEEEFHSSSSS
B8: il2ra_site2_2erj_sap_18_mot_HHH_b1_02757_000000121_0001_41_57_H_._HHH_b1_04572_0001_0000200008_0000001_0_0001 (protein)
chain: SSSSDIEERLEELIREVEELLERGDPEEATVVLVEAAFLALEAGDDEALRELWKLSREVFSSSSS
B9: il2ra_site2_3nfp_sap_21_mot_HHH_b1_03376_000000004_0001_41_55_H_._HHH_b1_04137_0001_0000300028_0000001_0_0001 (protein)
chain: SSSSSSDDEELKEELKELLEEGDEEKLEEVVKEAAHLAFEKGDFELFAIANEAAEELFSSSSSSS
B10: il2ra_site1_1z92_normal_mot_934a834d9b8b770824478def2ff2f329_0001_af2_000000088_0001_15_30_H_._HHH_b1_08366_af2_0001_0000200014_0000001_0_af2pred_0001_af2pred (protein)
chain: SSSSSAEEELEKIVEELVEEFKLSEIDKRALEKFAKRALEEGADLELIKKDLERTAKHLSSSSSS

Biological target: il2ra, P01589
Experiment: yeast display titration

Apparent Kd, inactive:
B1 no binding seen
B2 no binding seen
B3 no binding seen
B4 no binding seen
B5 no binding seen
B6 no binding seen
B7 no binding seen
B8 no binding seen
B9 no binding seen
B10 no binding seen
